Data reported in the supplement of paper PMC8728848.
This is one part of the list.

What was measured:
Experiment in all cases: glycan array binding signal (z-score within array); higher = stronger binding
Details in all cases: glycan notation: IUPAC condensed, linker removed
[1] = target: Neu5Gc(a2-8)Neu5Gc(a2-3)Gal(b1-4)GlcNAc(b1-3)Gal(b1-4)GlcNAc
Procedure, shortened: (§1)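 Arrays were curated from the Consortium for Functional Glycomics database, 3228 in total, and kept only where the protein sequence was available. Binding is expressed as a within-array Z-score. This score was averaged across arrays of the same protein sequence at different concentrations or buffers and across linkers, and negative values can be read as non-binding.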

[2] = target: Neu5Gc(a2-8)Neu5Gc(a2-6)Gal(b1-4)GlcNAc
Procedure, shortened: as §1

[3] = target: Neu5Gc(b2-6)Gal(b1-4)GlcNAc
Procedure, shortened: as §1

B1: Epa2 (Candida glabrata) (protein)
chain: MGSSHHHHHHSSGLVPRGSHMASSKDPTSFPMGCSPQVLKTQPGLAVKLYSYGHPVPGCAYNTYQYPDFPRSGYKKERKLADITGVNGRIDIDLKPNDPCRVLSGNLPSNYNYQNTLTYTNFTMILYGYFQPKVTGYHTFNLEADDLLFMNLGAGNAFDCCRAESTLDNFGNYQSYSIWGTDKATADLTVFLVSGIYYPIRLFYVNRDNNAVLDFSFSTEFNKEIIHDFTSYFFSASDEEQCPGNI
B1 was tested, and the “glycan array binding signal (z-score)” value [1] was -0.688, the “glycan array binding signal (z-score)” value [2] was -0.989 and the “glycan array binding signal (z-score)” value [3] was -0.027.
